In the test the target is T1, Flag-tagged TMBIM1 (transmembrane BAX inhibitor motif-containing 1) (human) (UniProt Q969X1).
T1 sequence: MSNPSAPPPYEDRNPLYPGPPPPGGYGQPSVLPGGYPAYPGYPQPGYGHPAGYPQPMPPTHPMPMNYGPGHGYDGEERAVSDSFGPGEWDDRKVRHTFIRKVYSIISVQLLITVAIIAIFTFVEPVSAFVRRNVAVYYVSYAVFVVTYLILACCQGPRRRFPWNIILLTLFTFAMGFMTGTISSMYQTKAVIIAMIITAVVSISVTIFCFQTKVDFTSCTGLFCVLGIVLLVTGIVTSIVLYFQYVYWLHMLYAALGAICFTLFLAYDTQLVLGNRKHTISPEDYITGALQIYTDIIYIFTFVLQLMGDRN
Briefly: affinity purification with mass spectrometry; IP with anti-Flag antibody from lysate of CFPAC-1 cells stably overexpressing Flag-TMBIM1, then LC-MS.

Amino acid sequences for entries named in this document (tags omitted).
UniProt P67809: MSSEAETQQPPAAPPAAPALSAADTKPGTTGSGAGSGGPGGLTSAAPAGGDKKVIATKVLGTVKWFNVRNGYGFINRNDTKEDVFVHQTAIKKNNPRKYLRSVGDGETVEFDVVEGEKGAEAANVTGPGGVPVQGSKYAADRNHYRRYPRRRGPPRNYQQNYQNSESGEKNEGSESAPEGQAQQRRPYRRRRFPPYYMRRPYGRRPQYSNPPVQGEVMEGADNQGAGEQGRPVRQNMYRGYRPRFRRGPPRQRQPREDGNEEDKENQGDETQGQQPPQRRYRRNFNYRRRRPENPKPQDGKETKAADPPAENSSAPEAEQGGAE

These are yes or no findings as the source states them, for the method shown. Binding seen in cells or lysates may run through a third protein. A yes stands for co-enrichment or nearness to the bait. Other partners may have been found. Where a sequence is shown, tags or fusion partners need not be part of it.

As to “Y box binding protein 1 (YBX1) (from UniProt P67809 1-324)”, the binding entry is reported as “binds”.
